Source: US11051513B2, “Pyridone compounds and agricultural and horticultural fungicides containing the same as active ingredients” (MITSUI CHEMICALS AGRO, INC., priority 2017, dated 2021)
Some results were stated once for a whole list of compounds, not compound by compound.

Experiments:
Plasmopara viticola = assay: Test Example G: Downy mildew on vine; details: 250 ppm sprayed (2.5 ml/pot) on grape (Neomuscat); disease development 7 to 10 days after inoculation
Puccinia recondita = assay: Test Example E: Brown rust on wheat; format: in vivo; details: 250 ppm sprayed (2.5 ml/pot) on wheat (Norin 61); disease development 7 to 10 days after inoculation
Botrytis cinerea = assay: Test Example B: Gray mold on tomato; details: 250 ppm sprayed (2.5 ml/pot) on tomato (Oogata Fukuju); disease development 2 to 3 days after inoculation
[1] = tested on: Colletotrichum orbiculare; assay: Test Example H: Anthracnose on cucumber; details: 250 ppm sprayed (2.5 ml/pot) on cucumber (Sagami Hanjiro); disease development 6 to 10 days after inoculation
Alternaia brassicicola = assay: Test Example C: Alternaria sooty spot on cabbage; details: 250 ppm sprayed (2.5 ml/pot) on cabbage (Shikidori); disease development 2 to 3 days after inoculation
[2] = tested on: Blumeria graminis f. sp. hordei; assay: Test Example D: Powdery mildew on barley; details: 250 ppm sprayed (2.5 ml/pot) on barley (Akashinriki); disease development 6 to 10 days after inoculation

Structure (SMILES) | control value (Plasmopara viticola) | control value (Puccinia recondita) | control value (Botrytis cinerea) | control value [1] | control value (Alternaia brassicicola) | control value [2]
CCN1C(=O)CCC(c2cc(F)cc(F)c2Cl)=C1c1ccc(F)cc1 [compound 11, 5-(2-chloro-3,5-difluorophenyl)-1-ethyl-6-(4-fluorophenyl)-3,4-dihydropyridin-2(1H)-one] | > 50% |  |  |  |  | 
CCn1c(-c2ccc(F)cc2)c(-c2cc(F)cc(F)c2Cl)cc(C)c1=O [compound 27, 5-(2-Chloro-3,5-difluorophenyl)-1-ethyl-6-(4-fluorophenyl)-3-methylpyridin-2(1H)-one] | > 50% |  |  |  |  | 
Cn1c(-c2ccccc2)c(-c2ccccc2Cl)ccc1=O [compound 108] | > 50% | > 50% | > 50% | > 50% |  | 
Cn1c(-c2ccc(F)cc2)c(-c2cc(F)cc(F)c2Br)cc(Br)c1=O [compound 155] |  | > 50% | > 50% | > 50% | > 50% | 
Cc1ccc(-c2c(-c3ccccc3Cl)cc(Br)c(=O)n2C)cc1 [compound 159] | > 50% |  |  | > 50% |  | 
Cn1c(-c2cc(F)c(F)c(F)c2)c(-c2cc(F)ccc2Cl)cc(Cl)c1=O [compound 161] |  | > 50% | > 50% | > 50% | > 50% | 
COc1ccc(-c2c(-c3ccccc3Cl)cc(Cl)c(=O)n2C)cc1 [compound 162] | > 50% | > 50% | > 50% | > 50% | > 50% | 
COc1c(F)cc(-c2c(-c3cc(F)ccc3Cl)ccc(=O)n2C)cc1F [compound 170] |  | > 50% | > 50% | > 50% | > 50% | > 50%
CCCCOc1ccc(-c2c(-c3cc(F)cc(F)c3Cl)cc(Br)c(=O)n2CC)cc1 [compound 175] |  |  |  |  |  | > 50%
CCn1c(-c2cc(C(F)(F)F)cc(C(F)(F)F)c2)c(-c2ccccc2Cl)ccc1=O [compound 191] | > 50% |  |  |  |  | 
CCCN1C(=O)CCC(c2ccccc2Cl)=C1c1cc(F)cc(F)c1 [compound 198] | > 50% |  |  |  |  | > 50%
CCCn1c(-c2cc(F)cc(F)c2)c(-c2ccccc2Cl)ccc1=O [compound 203] | > 50% | > 50% | > 50% |  |  | 
CCCn1c(-c2cc(F)cc(F)c2)c(-c2ccccc2Cl)cc(Br)c1=O [compound 213] | > 50% |  |  |  |  | 
Cn1c(-c2cc(Cl)cc(Cl)c2)c(-c2ccccc2Cl)cc(Cl)c1=O [compound 217] | > 50% |  |  |  |  | 
CCn1c(-c2ccc(OCC(F)(F)F)cc2)c(-c2cc(F)cc(F)c2Cl)cc(Cl)c1=O [compound 234] |  | > 50% | > 50% | > 50% | > 50% | 
CCn1c(-c2ccc(F)cc2)c(-c2cc(OCCC3OCCCO3)ccc2Cl)cc(Cl)c1=O [compound 259] | > 50% | > 50% | > 50% |  | > 50% | 
COc1ccc(-c2c(-c3cc(F)cc(F)c3Br)ccc(=O)n2C)cc1 [compound 260] |  | > 50% | > 50% | > 50% | > 50% | 
CCn1c(-c2ccc(F)cc2)c(-c2cc(Oc3ncc(C(F)(F)F)cc3Cl)ccc2Cl)cc(Cl)c1=O [compound 263] | > 50% |  | > 50% |  |  | 
CCn1c(-c2ccc(F)cc2)c(-c2ccccc2I)cc(Br)c1=O [compound 284] |  | > 50% | > 50% | > 50% | > 50% | 
CCn1c(-c2ccc(F)cc2)c(-c2cccc(OCS(C)(=O)=O)c2Cl)cc(Cl)c1=O [compound 286] | > 50% | > 50% | > 50% | > 50% | > 50% | 
Cn1c(-c2ccc(F)cc2)c(-c2cccnc2Cl)ccc1=O [compound 287] | > 50% | > 50% |  | > 50% | > 50% | 
CCn1c(-c2ccc(F)cc2)c(-c2ccccc2C#N)ccc1=O [compound 298] |  | > 50% | > 50% | > 50% | > 50% | > 50%
CCn1c(-c2ccc(F)cc2)c(-c2ccccc2OC)ccc1=O [compound 306] |  | > 50% |  |  | > 50% | > 50%
Cn1c(-c2ccc(F)cc2)c(-c2ccccc2C#N)ccc1=O [compound 314] | > 50% | > 50% | > 50% |  | > 50% | 

Structure (SMILES) | control value (Plasmopara viticola) | control value (Puccinia recondita) | control value (Botrytis cinerea) | control value [1] | control value (Alternaia brassicicola) | control value [2]
Cn1c(-c2ccc(F)cc2)c(-c2ccccc2C#N)cc(Cl)c1=O [compound 315] | > 50% | > 50% | > 50% |  | > 50% | 
Cn1c(-c2ccc(C#N)cc2)c(-c2cc(F)cc(F)c2Cl)cc(Br)c1=O [compound 322] |  | > 50% | > 50% | > 50% | > 50% | 
C#Cc1ccc(-c2c(-c3cc(F)cc(F)c3Cl)ccc(=O)n2C)cc1 [compound 328] |  | > 50% | > 50% | > 50% | > 50% | 
CCn1c(-c2ccc(F)cc2)c(-c2cc(O)ccc2Cl)cc(Cl)c1=O [compound 340, 3-chloro-5-(2-chloro-5-hydroxyphenyl)-1-ethyl-6-(4-fluorophenyl)pyridin-2(1H)-one] | > 50% |  |  |  |  | 
CCN1C(=O)CCC(c2ccc(Cl)cc2Cl)=C1c1ccc(F)cc1 [compound 358] |  | > 50% |  |  | > 50% | > 50%
O=C1CCC(c2ccc(F)cc2F)=C(c2ccc(F)cc2)N1CC(F)(F)F [compound 366] | > 50% |  |  |  |  | 
O=c1ccc(-c2ccc(F)cc2F)c(-c2ccc(F)cc2)n1CC(F)(F)F [compound 367] | > 50% | > 50% |  |  |  | > 50%
N#Cc1ccc(-c2c(-c3ccccc3Cl)cc(Cl)c(=O)n2CC(F)(F)F)cc1 [compound 371] | > 50% |  | > 50% |  |  | 
O=c1c(Cl)cc(-c2ccc(F)cc2F)c(-c2ccc(F)cc2)n1CC(F)(F)F [compound 373] |  |  | > 50% |  |  | > 50%
CN1C(=O)CCC(c2cc(C(F)(F)F)ccc2Cl)=C1c1ccc(F)cc1 [compound 375] | > 50% |  | > 50% |  |  | 
Cn1c(-c2ccc(F)cc2)c(-c2cc(C(F)(F)F)ccc2Cl)cc(Br)c1=O [compound 378] | > 50% |  |  |  |  | 
CCn1c(-c2ccc(F)cc2)c(-c2cc(C(F)(F)F)ccc2Cl)ccc1=O [compound 380] |  | > 50% | > 50% |  |  | > 50%
O=C1CCC(c2ccccc2Cl)=C(c2ccc(F)cc2)N1CC(F)F [compound 405] |  |  |  |  |  | > 50%
O=C1CCC(c2cc(Cl)ccc2Cl)=C(c2ccc(F)cc2)N1CC(F)F [compound 415] | > 50% | > 50% |  |  |  | > 50%
O=c1ccc(-c2cc(Cl)ccc2Cl)c(-c2ccc(F)cc2)n1CC(F)F [compound 419] |  | > 50% | > 50% | > 50% | > 50% | > 50%
O=c1c(I)cc(-c2ccccc2Cl)c(-c2ccc(F)cc2)n1CC(F)(F)F [compound 463] | > 50% |  |  |  |  | 
CCn1c(-c2ccc(F)cc2)c(-c2cc(C)ccc2C)ccc1=O [compound 477] |  | > 50% | > 50% | > 50% | > 50% | > 50%
Cc1ccc(C)c(-c2cc(Cl)c(=O)n(CC(F)F)c2-c2ccc(F)cc2)c1 [compound 482] |  |  |  |  |  | > 50%
Cc1ccc(C)c(-c2cc(Cl)c(=O)n(CC(F)F)c2-c2ccccc2)c1 [compound 486] |  |  | > 50% |  |  | > 50%
Cc1ccc(C)c(-c2cc(Br)c(=O)n(CC(F)F)c2-c2ccccc2)c1 [compound 487] |  |  |  |  |  | > 50%
Cc1ccccc1C1=C(c2ccccc2)N(CC(F)F)C(=O)CC1 [compound 489] | > 50% |  |  |  |  | > 50%
CCn1c(-c2ccccc2)c(-c2cc(F)ccc2Br)ccc1=O [compound 503] |  | > 50% | > 50% | > 50% | > 50% | 
O=c1c(I)cc(-c2ccc(F)cc2Cl)c(-c2ccccc2)n1CC(F)F [compound 514] |  | > 50% | > 50% |  |  | > 50%
O=c1ccc(-c2ccccc2Br)c(-c2ccccc2)n1CC(F)F [compound 530] |  | > 50% | > 50% | > 50% | > 50% | > 50%
